# Laboratory results reported in the supplement of paper PMC12819154, “High-throughput peptide-centric local stability assay extends protein–ligand identification to membrane proteins, tissues and bacteria” (Nature Structural & Molecular Biology, 2025).
# The chains behind the UniProt entries cited, without tags or fusion partners. Where a name states a change or a piece, a line headed by the entry shows the natural chain unless it says otherwise.
# UniProt Q9BYT8, whole entry, looked up: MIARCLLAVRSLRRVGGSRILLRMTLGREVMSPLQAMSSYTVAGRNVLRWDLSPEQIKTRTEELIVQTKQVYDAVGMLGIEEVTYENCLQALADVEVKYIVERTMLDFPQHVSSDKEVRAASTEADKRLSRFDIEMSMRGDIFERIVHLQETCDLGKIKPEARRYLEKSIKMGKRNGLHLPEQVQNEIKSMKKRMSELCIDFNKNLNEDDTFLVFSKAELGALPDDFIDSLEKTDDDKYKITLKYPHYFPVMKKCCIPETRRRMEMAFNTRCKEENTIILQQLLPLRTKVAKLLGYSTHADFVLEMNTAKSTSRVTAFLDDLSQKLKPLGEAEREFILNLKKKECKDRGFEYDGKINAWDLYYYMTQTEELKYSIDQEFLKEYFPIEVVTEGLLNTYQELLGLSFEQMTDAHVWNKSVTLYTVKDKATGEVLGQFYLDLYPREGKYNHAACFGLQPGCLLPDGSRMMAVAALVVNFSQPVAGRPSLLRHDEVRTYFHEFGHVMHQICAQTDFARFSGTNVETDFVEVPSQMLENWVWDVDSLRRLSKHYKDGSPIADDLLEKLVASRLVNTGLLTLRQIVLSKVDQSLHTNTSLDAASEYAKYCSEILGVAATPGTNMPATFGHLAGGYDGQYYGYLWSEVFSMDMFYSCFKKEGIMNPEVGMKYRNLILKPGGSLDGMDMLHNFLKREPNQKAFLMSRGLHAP
# UniProt Q9H1A4, whole entry: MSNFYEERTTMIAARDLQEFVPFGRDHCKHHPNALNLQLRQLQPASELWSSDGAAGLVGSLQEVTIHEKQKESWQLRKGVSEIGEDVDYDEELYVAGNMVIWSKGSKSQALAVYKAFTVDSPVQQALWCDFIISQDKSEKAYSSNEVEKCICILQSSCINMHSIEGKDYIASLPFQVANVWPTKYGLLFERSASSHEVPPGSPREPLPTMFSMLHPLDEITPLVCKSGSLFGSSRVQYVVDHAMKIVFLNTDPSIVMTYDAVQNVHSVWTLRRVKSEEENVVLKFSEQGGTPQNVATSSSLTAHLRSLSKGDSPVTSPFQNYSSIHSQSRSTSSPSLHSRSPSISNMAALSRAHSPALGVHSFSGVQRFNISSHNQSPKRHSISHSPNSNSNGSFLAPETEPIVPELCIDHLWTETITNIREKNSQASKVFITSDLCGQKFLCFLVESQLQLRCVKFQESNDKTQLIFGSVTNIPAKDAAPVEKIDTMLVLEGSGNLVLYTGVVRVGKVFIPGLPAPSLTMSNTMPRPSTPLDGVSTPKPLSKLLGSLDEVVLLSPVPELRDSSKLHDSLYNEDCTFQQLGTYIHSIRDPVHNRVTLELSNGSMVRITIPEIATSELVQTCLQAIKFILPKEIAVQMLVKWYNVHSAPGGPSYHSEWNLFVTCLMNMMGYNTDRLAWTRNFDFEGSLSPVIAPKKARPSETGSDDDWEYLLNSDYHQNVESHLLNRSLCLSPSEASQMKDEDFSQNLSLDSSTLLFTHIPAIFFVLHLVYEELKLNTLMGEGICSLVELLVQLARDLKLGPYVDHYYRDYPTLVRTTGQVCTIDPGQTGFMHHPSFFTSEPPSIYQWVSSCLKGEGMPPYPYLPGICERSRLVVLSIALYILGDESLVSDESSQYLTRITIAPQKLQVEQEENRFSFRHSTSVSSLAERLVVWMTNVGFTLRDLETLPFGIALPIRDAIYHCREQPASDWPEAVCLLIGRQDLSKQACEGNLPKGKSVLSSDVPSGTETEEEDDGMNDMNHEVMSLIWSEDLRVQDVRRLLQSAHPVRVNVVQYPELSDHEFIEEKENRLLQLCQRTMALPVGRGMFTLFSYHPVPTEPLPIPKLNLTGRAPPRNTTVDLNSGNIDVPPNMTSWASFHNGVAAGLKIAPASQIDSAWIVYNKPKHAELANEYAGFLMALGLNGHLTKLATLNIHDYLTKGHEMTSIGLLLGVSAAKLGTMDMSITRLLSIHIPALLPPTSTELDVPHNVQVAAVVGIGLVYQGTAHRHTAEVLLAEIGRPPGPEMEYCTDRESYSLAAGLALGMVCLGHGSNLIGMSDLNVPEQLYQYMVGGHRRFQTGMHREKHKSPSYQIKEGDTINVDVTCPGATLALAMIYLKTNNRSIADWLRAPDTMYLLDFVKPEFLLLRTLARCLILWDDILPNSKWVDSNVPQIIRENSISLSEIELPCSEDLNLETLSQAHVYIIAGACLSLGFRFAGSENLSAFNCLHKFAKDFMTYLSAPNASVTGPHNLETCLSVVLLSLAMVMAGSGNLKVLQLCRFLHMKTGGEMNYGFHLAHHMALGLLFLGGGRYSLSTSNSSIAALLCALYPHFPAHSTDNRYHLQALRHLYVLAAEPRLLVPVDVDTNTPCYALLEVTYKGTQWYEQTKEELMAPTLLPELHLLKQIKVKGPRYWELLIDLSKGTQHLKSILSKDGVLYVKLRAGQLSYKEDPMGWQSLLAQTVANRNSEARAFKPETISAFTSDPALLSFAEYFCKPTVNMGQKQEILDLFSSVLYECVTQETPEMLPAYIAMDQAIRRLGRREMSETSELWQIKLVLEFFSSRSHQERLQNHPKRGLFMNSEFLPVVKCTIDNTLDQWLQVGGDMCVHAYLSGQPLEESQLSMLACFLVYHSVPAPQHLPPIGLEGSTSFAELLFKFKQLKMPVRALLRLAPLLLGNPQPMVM
# UniProt Q9H2G4: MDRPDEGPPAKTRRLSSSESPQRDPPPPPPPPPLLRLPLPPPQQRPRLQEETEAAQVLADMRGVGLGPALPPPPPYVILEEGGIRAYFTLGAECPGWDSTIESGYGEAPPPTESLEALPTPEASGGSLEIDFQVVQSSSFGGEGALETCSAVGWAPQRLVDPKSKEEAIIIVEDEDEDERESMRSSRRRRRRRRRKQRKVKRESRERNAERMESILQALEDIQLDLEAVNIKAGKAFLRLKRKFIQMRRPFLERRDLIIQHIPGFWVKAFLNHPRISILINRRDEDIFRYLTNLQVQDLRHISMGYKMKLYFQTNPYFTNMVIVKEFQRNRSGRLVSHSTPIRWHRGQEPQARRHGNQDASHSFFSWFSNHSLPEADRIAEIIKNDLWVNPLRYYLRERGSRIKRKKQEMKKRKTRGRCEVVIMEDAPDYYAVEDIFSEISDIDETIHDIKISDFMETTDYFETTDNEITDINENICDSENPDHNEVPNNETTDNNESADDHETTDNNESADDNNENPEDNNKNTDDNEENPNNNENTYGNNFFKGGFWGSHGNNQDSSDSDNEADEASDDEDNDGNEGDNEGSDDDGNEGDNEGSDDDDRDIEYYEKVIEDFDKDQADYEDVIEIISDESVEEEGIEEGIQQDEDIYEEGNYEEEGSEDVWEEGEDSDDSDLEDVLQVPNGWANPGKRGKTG
# UniProt Q9C0G0: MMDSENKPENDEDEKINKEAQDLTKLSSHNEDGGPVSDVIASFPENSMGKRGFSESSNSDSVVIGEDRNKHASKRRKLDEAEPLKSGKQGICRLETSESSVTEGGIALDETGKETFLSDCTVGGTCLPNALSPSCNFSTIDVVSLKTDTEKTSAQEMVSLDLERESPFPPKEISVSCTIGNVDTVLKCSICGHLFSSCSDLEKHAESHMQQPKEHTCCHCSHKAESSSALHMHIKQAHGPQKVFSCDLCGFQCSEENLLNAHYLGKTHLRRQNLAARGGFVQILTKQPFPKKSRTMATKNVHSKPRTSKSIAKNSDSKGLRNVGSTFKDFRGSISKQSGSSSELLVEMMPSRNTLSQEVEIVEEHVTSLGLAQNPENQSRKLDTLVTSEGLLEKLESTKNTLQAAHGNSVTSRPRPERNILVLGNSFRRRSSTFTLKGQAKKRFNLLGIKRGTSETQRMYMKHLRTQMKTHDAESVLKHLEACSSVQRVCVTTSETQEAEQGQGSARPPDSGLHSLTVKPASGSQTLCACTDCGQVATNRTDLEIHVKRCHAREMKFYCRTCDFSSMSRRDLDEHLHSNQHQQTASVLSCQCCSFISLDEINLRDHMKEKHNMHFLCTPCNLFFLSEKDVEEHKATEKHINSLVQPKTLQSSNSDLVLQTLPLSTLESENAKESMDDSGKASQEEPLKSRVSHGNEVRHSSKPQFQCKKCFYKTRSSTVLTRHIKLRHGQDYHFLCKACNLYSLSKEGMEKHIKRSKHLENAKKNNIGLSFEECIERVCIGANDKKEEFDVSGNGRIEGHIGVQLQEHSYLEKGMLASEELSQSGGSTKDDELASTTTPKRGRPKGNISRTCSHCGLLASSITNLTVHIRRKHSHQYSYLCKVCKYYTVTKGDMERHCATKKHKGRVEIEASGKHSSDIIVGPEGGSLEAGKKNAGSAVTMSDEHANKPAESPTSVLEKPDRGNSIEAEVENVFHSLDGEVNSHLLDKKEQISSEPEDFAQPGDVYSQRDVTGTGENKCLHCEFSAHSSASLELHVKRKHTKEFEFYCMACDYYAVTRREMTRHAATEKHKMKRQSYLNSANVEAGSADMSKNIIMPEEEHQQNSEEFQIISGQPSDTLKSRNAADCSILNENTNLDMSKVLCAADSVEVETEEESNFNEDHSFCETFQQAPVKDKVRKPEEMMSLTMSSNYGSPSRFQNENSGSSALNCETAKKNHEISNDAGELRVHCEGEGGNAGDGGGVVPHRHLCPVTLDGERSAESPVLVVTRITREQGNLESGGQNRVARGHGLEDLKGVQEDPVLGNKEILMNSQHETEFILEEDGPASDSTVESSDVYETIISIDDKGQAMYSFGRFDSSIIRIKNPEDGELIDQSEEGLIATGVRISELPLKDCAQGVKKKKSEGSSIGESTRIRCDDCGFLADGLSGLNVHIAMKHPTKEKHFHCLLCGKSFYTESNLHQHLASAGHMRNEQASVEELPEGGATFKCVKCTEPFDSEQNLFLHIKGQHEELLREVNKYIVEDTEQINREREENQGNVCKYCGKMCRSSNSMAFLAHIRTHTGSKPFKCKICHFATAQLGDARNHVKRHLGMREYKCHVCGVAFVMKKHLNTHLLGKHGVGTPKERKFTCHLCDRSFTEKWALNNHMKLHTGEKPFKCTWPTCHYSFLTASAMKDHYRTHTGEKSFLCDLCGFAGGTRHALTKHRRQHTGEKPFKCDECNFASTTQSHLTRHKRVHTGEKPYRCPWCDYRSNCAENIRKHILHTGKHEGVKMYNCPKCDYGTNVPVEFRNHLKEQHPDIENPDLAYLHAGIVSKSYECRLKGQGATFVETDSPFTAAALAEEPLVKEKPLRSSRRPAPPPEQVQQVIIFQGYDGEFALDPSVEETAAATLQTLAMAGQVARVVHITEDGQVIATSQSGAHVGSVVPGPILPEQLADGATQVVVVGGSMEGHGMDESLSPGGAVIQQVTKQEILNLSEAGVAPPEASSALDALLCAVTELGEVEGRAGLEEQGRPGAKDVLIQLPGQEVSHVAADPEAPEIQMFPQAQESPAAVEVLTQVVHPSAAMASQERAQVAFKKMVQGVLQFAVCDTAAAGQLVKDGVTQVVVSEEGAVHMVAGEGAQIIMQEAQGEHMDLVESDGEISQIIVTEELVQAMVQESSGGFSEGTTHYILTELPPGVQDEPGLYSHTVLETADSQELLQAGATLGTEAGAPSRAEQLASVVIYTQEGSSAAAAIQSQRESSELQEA
# UniProt Q9C0B5: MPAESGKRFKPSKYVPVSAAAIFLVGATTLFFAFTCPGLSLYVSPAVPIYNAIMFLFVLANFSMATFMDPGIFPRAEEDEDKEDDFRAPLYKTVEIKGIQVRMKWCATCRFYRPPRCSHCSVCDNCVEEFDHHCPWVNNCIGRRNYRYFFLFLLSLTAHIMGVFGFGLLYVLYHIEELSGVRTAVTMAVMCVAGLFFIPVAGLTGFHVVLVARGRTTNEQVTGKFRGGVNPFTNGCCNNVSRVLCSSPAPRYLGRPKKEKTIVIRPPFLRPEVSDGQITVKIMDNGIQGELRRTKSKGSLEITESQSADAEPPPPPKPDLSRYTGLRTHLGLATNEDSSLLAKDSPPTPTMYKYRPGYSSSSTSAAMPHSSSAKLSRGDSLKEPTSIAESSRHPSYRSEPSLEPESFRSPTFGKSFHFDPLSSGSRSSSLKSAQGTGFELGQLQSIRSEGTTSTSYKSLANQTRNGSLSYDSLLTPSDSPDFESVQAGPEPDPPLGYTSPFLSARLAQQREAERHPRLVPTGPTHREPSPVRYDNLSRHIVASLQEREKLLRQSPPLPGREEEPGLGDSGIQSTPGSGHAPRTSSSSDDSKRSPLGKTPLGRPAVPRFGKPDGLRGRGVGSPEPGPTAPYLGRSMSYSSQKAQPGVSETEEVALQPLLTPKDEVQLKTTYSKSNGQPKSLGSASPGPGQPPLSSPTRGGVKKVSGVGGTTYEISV
# The other results are listed elsewhere or left out. Small differences around the control level are noise.
# Compound: CN[C@@H]1C[C@H]2O[C@@](C)([C@@H]1OC)n1c3ccccc3c3c4c(c5c6ccccc6n2c5c31)C(=O)NC4 [staurosporine]
# Test: log2 fold change of tryptic peptide abundance, ligand vs vehicle (limited proteolysis) (log2 ratio); higher = more trypsin-susceptible (destabilized)
# Details: ligand concentration: 20 uM; sample: K562 cleared lysate; digestion: 4 min, 22 C (HT-PELSA RT4min, Orbitrap Astral)
row,Target,log2 fold change
1,"UBA5 (peptide sequence: KQQEEYK, peptide start residue: 310) (UniProt Q9GZZ9)",1.08
2,"NLN (peptide sequence: VTAFLDDLSQK, peptide start residue: 315) (UniProt Q9BYT8)",-0.162
3,"ANAPC1 (peptide sequence: STSSPSLHSR, peptide start residue: 331) (UniProt Q9H1A4)",0.191
4,"KDM5D (peptide sequence: DLPVGLEELR, peptide start residue: 1060) (UniProt Q9BY66)",-0.0591
5,"UniProt Q9H330 (peptide sequence: AVGPSGGGGETPR, peptide start residue: 26)",-0.0016
6,"TSPYL2 (peptide sequence: SKEEAIIIVEDEDEDERESMR, peptide start residue: 164) (UniProt Q9H2G4)",0.374
7,"MRPL18 (peptide sequence: NVVACESIGR, peptide start residue: 121) (UniProt Q9H0U6)",0.0844
8,"ZNF407 (peptide sequence: GVQEDPVLGNK, peptide start residue: 1296) (UniProt Q9C0G0)",-0.479
9,"WNK1 (peptide sequence: SGSGGGSAKEPQEER, peptide start residue: 183) (UniProt Q9H4A3)",-0.254
10,"ZDHHC5 (peptide sequence: SEGTTSTSYK, peptide start residue: 448) (UniProt Q9C0B5)",-0.502
